Data reported in patent publication US20180086714A1 (priority 2015, published 2018).
Some of these results come from one statement about several compounds together.

What was measured:
Assay type in all cases: cell-based
Settings in all cases: 31 ppm active substance; absorption at 405 nm 9 days after inoculation; relative to active compound-free control (100%)
[1] = system: Pyricularia oryzae
[2] = system: Alternaria Solani; assay: Microtest, activity against early blight
[3] = system: Septoria tritici; assay: Microtest, activity against leaf blotch on wheat
[4] = system: Botytis Cineraa; assay: Microtiterplate test, activity against grey mold
[5] = system: Leptosphaeria nodorum; assay: Microtest, activity against wheat leaf spots

For CC1(C)Cc2ccsc2C(c2cnc3ccccc3c2)=N1 [I-1, 5,5-Dimethyl-7-(3-quinolyl)-4H-thieno[2,3-c]pyridine], the “growth of the pathogen” value [1] was “at most 8%” and the “growth of the pathogen” value [2] was “at most 17%”.
For Cc1cc2c(s1)C(c1cnc3ccccc3c1)=NC(C)(C)C2 [I-2], the “growth of the pathogen” value [1] was “at most 8%”.
CC1(C)N=C(c2cnc3ccccc3c2)c2sccc2C1(F)F [I-3, 4,4-difluoro-5,5-dimethyl-7-(3-quinolyl)thieno[2,3-c]pyridine] was tested, and the “growth of the pathogen” value [1] was “at most 8%”, the “growth of the pathogen” value [3] was “at most 17%” and the “growth of the pathogen” value [2] was “at most 17%”.
For CC1(C)N=C(c2cnc3ccccc3c2)c2sccc2C1(C)C [I-6], the “growth of the pathogen” value [4] was “at most 5%”, the “growth of the pathogen” value [1] was “at most 8%” and the “growth of the pathogen” value [3] was “at most 17%”. The “growth of the pathogen” value [2] was “at most 17%”.
For CC1(C)Cc2c(F)csc2C(c2cnc3ccccc3c2)=N1 [I-7], the “growth of the pathogen” value [4] was “at most 5%”, the “growth of the pathogen” value [1] was “at most 8%” and the “growth of the pathogen” value [3] was “at most 17%”.
For CC1(C)N=C(c2cnc3c(F)cccc3c2)c2sccc2C1(F)F [I-9], the “growth of the pathogen” value [4] was “at most 5%”, the “growth of the pathogen” value [1] was “at most 8%” and the “growth of the pathogen” value [3] was “at most 17%”. For the same molecule, the “growth of the pathogen” value [2] was “at most 17%” and the “growth of the pathogen” value [5] was “at most 9%”.
With CC1(C)N=C(c2cnc3c(Cl)cccc3c2)c2sccc2C1(F)F [I-10] the “growth of the pathogen” value [4] was “at most 5%”, the “growth of the pathogen” value [1] was “at most 8%” and the “growth of the pathogen” value [3] was “at most 17%”. For the same molecule, the “growth of the pathogen” value [2] was “at most 17%” and the “growth of the pathogen” value [5] was “at most 9%”.
For CC1(C)N=C(c2cnc3c(F)c(F)ccc3c2)c2sccc2C1(F)F [I-11], the “growth of the pathogen” value [4] was “at most 5%”, the “growth of the pathogen” value [1] was “at most 8%” and the “growth of the pathogen” value [3] was “at most 17%”. For the same molecule, the “growth of the pathogen” value [2] was “at most 17%” and the “growth of the pathogen” value [5] was “at most 9%”.
With CC1(C)N=C(c2cnc3ccccc3c2)c2scc(F)c2C1F (stereo not shown) [I-12] the “growth of the pathogen” value [4] was “at most 5%”, the “growth of the pathogen” value [1] was “at most 8%” and the “growth of the pathogen” value [3] was “at most 17%”. For the same molecule, the “growth of the pathogen” value [2] was “at most 17%” and the “growth of the pathogen” value [5] was “at most 9%”.
CC1(C)N=C(c2cnc3ccccc3c2)c2scc(F)c2C1(F)F [I-13] was tested, and the “growth of the pathogen” value [4] was “at most 5%”, the “growth of the pathogen” value [1] was “at most 8%” and the “growth of the pathogen” value [3] was “at most 17%”. For the same molecule, the “growth of the pathogen” value [2] was “at most 17%” and the “growth of the pathogen” value [5] was “at most 9%”.
CC1(C)Cc2cc(Cl)sc2C(c2cnc3ccccc3c2)=N1 [I-14] was tested, and the “growth of the pathogen” value [1] was “at most 8%”, the “growth of the pathogen” value [3] was “at most 17%” and the “growth of the pathogen” value [2] was “at most 17%”.
With CC1(C)N=C(c2cnc3ccccc3c2)c2sc(Cl)cc2C1(F)F [I-15] the “growth of the pathogen” value [1] was “at most 8%”, the “growth of the pathogen” value [3] was “at most 17%” and the “growth of the pathogen” value [2] was “at most 17%”.
CC1(C)Cc2cc(C(F)F)sc2C(c2cnc3ccccc3c2)=N1 [I-16] was tested, and the “growth of the pathogen” value [1] was “at most 8%”, the “growth of the pathogen” value [3] was “at most 17%” and the “growth of the pathogen” value [2] was “at most 17%”.
CC1(C)Cc2c(Cl)csc2C(c2cnc3ccccc3c2)=N1 [I-17] was tested, and the “growth of the pathogen” value [1] was “at most 8%”, the “growth of the pathogen” value [3] was “at most 17%” and the “growth of the pathogen” value [2] was “at most 17%”.
With CC1(C)Cc2c(Br)csc2C(c2cnc3ccccc3c2)=N1 [I-19] the “growth of the pathogen” value [1] was “at most 8%”, the “growth of the pathogen” value [3] was “at most 17%” and the “growth of the pathogen” value [2] was “at most 17%”.
In the case of CC1(C)N=C(c2cnc3ccccc3c2)c2ccsc2C1(F)F [I-20, 7,7-difluoro-6,6-dimethyl-4-(3-quinolyl)thieno[3,2-c]pyridine], the “growth of the pathogen” value [4] is reported as “at most 5%”, the “growth of the pathogen” value [1] is reported as “at most 8%” and the “growth of the pathogen” value [3] is reported as “at most 17%”. For the same molecule, the “growth of the pathogen” value [2] was “at most 17%” and the “growth of the pathogen” value [5] was “at most 9%”.
CC1(C)N=C(c2cnc3ccccc3c2)c2sccc2C1=O [IIA-1] was tested, and the “growth of the pathogen” value [1] was “at most 8%”, the “growth of the pathogen” value [3] was “at most 17%” and the “growth of the pathogen” value [2] was “at most 17%”.
